Measurements reported in PubChem BioAssay AID720505 (Drosophila RNAi Screening Center, 2013)
Assay: 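Genes needed for store-operated calcium entry in fly cells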 (primary screen). Cells: Drosophila S2R+ cells. Knock-down reagent: long dsRNA against Drosophila genes. Treatment: thapsigargin (2 µM) in calcium-free buffer to empty internal stores, then 2 mM calcium added back. Detection: 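Fluo-4 signal in 384-well plates read on a FLIPR after thapsigargin (2 µM, calcium-free) store depletion and 2 mM calcium add-back; unnormalised mean endpoint per well; screen run twice, selected wells retested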. Scale: calcium signal and retest calcium signal: higher = more calcium entry after store depletion. Rule for the call: 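Knock-downs counted as hits when calcium entry dropped relative to STIM1 positive and Rho1 negative controls present on each plate; roughly 1500 genes called, with reductions of differing size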. Meaning of the calls: active = called as lowering calcium entry; inactive = not called.
The screen tested about 20,000 reagents; below is a random part of those that have a named target and a result. In the full data, about 2,100 (10%) are marked active. 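Raw plate signals without normalisation; calls rest on control-based scores that were not deposited; replicate 2 separates called from uncalled poorly.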 No sequences are given here. The record does not give: the amount of reagent, the time to read-out.

What is on record for CG30458 [DRSC06660]?
calcium signal, replicate 1: 197; calcium signal, replicate 2: 145; retest calcium signal, replicate 1: 129; retest calcium signal, replicate 2: 104; outcome: inactive

What did the screen give for CG18095 [DRSC01948]?
calcium signal, replicate 1: 136; calcium signal, replicate 2: 167; outcome: inactive

For Ccp84Ae [DRSC12590], what was measured?
calcium signal, replicate 1: 77.5; calcium signal, replicate 2: 185; retest calcium signal, replicate 1: 7083; retest calcium signal, replicate 2: 120; outcome: active

With Gbs-70E (Glycogen binding subunit 70E) [DRSC11055], what was measured?
calcium signal, replicate 1: 103; calcium signal, replicate 2: 150; outcome: inactive

With MSBP (membrane steroid binding protein) [DRSC20146], what was measured?
calcium signal, replicate 1: 161; calcium signal, replicate 2: 100; outcome: inactive

Records listed so far whose target name starts with C or c (3):
CG30458 [DRSC06660] → calcium signal, replicate 1 = 197; calcium signal, replicate 2 = 145; retest calcium signal, replicate 1 = 129; retest calcium signal, replicate 2 = 104; outcome = inactive
CG18095 [DRSC01948] → calcium signal, replicate 1 = 136; calcium signal, replicate 2 = 167; outcome = inactive
Ccp84Ae [DRSC12590] → calcium signal, replicate 1 = 77.5; calcium signal, replicate 2 = 185; retest calcium signal, replicate 1 = 7083; retest calcium signal, replicate 2 = 120; outcome = active

Additional results follow:
What is on record for Jon66Cii (Jonah 66Cii) [DRSC10778]?
calcium signal, replicate 1: 99.8; calcium signal, replicate 2: 67.9; outcome: inactive

How did the screen score CG40045 [DRSC21232]?
calcium signal, replicate 1: 176; calcium signal, replicate 2: 123; outcome: inactive

With mey (morpheyus) [DRSC14468], what does the deposit list?
calcium signal, replicate 1: 106; calcium signal, replicate 2: 99.2; outcome: inactive

With LSm7 (Like Sm 7) [DRSC02251], what was measured?
calcium signal, replicate 1: 90.9; calcium signal, replicate 2: 102; outcome: inactive

For alphaCOP (Coat Protein (coatomer) alpha) [DRSC08706], what does the deposit list?
calcium signal, replicate 1: 71.8; calcium signal, replicate 2: 112; outcome: active

What is on record for ZAP3 [DRSC17852]?
calcium signal, replicate 1: 130; calcium signal, replicate 2: 120; outcome: inactive

For ZAP3 [DRSC17853], how do the results read?
calcium signal, replicate 1: 68.8; calcium signal, replicate 2: 75.5; outcome: active

With ZAP3 [DRSC18249], what was measured?
calcium signal, replicate 1: 118; calcium signal, replicate 2: 94.2; outcome: inactive
